Results on four molecules are retold here after US9217032B2, “Methods for treating colorectal cancer” (LES LABORATOIRES SERVIER, priority 2010, dated 2015).

For the data set, the system named is hPG. The data set is described as follows: Epitope mapping by SPOT technique and alanine scanning. The format is binding, human. As to conditions: for epitope within PG peptide antigen SWKPRSQQPDAPLG: N-terminal anti-hPG monoclonal antibodies, epitopes comprise at least this sequence.

B1: MAb4: murine N-terminal anti-hPG monoclonal antibody, hybridoma 20D2C3G2, VH SEQ ID NO:14, VL SEQ ID NO:15 (antibody, V domains shown)
VH: QVQLQQSGAELMKPGASVKISCKATGYTFSSSWIEWLKQRPGHGLEWIGEFLPGSGSTDYNEKFKGKATFTADTSSDTAYMLLSSLTSEDSAVYYCATDGNYDWFAYWGQGTLVTVSA
VL: DLVMTQTPLSLPVSLGDQASISCRSSQSLVHSSGVTYLHWYLQKPGQSPKLLIYKVSNRFSGVPDRFSGSGSGTDFTLKISRVEAEDLGVYFCSQSTHVPPTFGSGTKLEIK
In the case of B1, the “epitope within PG peptide antigen SWKPRSQQPDAPLG” value is on record as “WKPRSQQPDAPLG”.

B2: MAb8: murine C-terminal anti-hPG monoclonal antibody, hybridoma 1C10D3B9, VH SEQ ID NO:59, VL SEQ ID NO:63 (antibody, V domains shown)
VH: EVQLVESGGGLVKPGGSLKLSCAASGFTFTTYAMSWVRQTPEKRLEWVATISSGGTYTYYPDSVKGRFTISRDNAKNALYLQMSSLRSEDTAMYYCATQGNYSLDFWGQGTSLTVSS
VL: DIVMTQAASSNPVTLGTSASISCRSSKSLRHTKGITFLYWYLQKPGQSPQLLIYQMSNLASGVPDRFSSSGSGTDFTLRISRVEAEDLGVYYCAQNLELPLTFGAGTKLELK
For B2, the “region of hPG recognized (N- or C-terminal epitope)” value is reported as “C-terminal epitopes of hPG”.

B3: MAb19: murine N-terminal anti-hPG monoclonal antibody, hybridoma 1B3B4F11, VH SEQ ID NO:62, VL SEQ ID NO:66 (antibody, V domains shown)
VH: DVQLQESGPGLVKPSQSLSLTCTVTGYSITSDYAWNWIRQFPGNKLEWMGYISFSGYTSYNPSLKSRISVTRDTSRNQFFLQLTSVTTEDTATYYCAREVNYGDSYHFDYWGQGTIVTVSS
VL: QLALTQSSSASFSLGASAKLTCTLSSQHRTYTIEWYQQQSLKPPKYVMEVKKDGSHSTGHGIPDRFSGSSSGADRYLSISNIQPEDEAIYICGVGDAIKGQSVFVFGGGTKVTVL
B3: the “epitope within PG peptide antigen SWKPRSQQPDAPLG” value is recorded as “WKPRSQQPD”.

B4: MAb3: murine N-terminal anti-hPG monoclonal antibody, hybridoma 6B5B11C10, VH SEQ ID NO:12, VL SEQ ID NO:13 (antibody, V domains shown)
VH: EVQLQQSGTVLARPGASVKMSCKASGYIFTSYWVHWVKQRPGQGLEWIGGFYPGNSDSRYNQKFKGKATLTAVTSASTAYMDLSSLTNEDSAVYFCTRRDSPQYWGQGTTLTVSS
VL: DVLMTQTPLSLPVSLGDQASISCRSSQSIVHSNGNTYLEWYLQKPGQSPKLLIYKVSNRFSGVPDRFSGSGSGTDFTLKISRLEAEDLGVYYCFQGSHVPFTFGGGTKLEIK
Take B4: the “epitope within PG peptide antigen SWKPRSQQPDAPLG” value is listed as “DAPLG”.
